Measurements reported in PubChem BioAssay AID686943 (Drosophila RNAi Screening Center, 2013).
Test: 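Search across the genome for regulators of signalling from receptor tyrosine kinase to ERK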 (primary screen). Cells: Drosophila S2R+ haemocyte-like cells expressing YFP-tagged ERK (Rolled). Knock-down reagent: long dsRNA against Drosophila genes. Conditions: insulin stimulation versus unstimulated cells; dose and duration not given. Read-out: 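Antibody staining for doubly phosphorylated ERK divided by ERK-YFP signal, as plate z-scores, in insulin-treated and untreated cells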. Direction: replicate 1, z-score of dpERK with insulin and replicate 2, z-score of dpERK with insulin: higher = more active ERK per ERK-YFP after insulin; replicate 1, z-score of dpERK under basal conditions: higher = more basal active ERK per ERK-YFP.
The screen tested about 23,000 reagents; shown is an unselected part of those that have a named target and a result. 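Extra replicates exist only for a retested subset of genes; insulin dose and duration not given; both raised and lowered dpERK matter.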 A plus sign joins genes that one reagent is predicted to hit. Further read-outs or replicates are left out here. Not stated in the record: the amount of reagent, the time to read-out.

target | dsRNA | replicate 1, z-score of dpERK with insulin | replicate 2, z-score of dpERK with insulin | replicate 1, z-score of dpERK under basal conditions
CG15317 | DRSC18005 | 0.99 | 0.64 | -0.39
Mst89B | DRSC16748 | 0.1 | 0.45 | -0.02
Cyfip (Cytoplasmic FMR1 interacting protein) | DRSC15679 | -0.26 | -0.52 | -0.52
Myo61F (Myosin 61F) | DRSC22144 | -1.14 | 0.02 | -1.09
CG33543 | DRSC00384 | 0.24 | -0.46 | -1.02
CG33543 | DRSC00385 | 0.56 | 0.06 | -0.46
CG12535 | DRSC17838 | 0.19 | 1.11 | -1.4
asRNA:CR30267 (antisense RNA:CR30267) | DRSC21628 | -0.02 | 0.48 | 0.43
Mst85C | DRSC16746 | -0.17 | -1.15 | 0.63
hng3 (hinge3) | DRSC08367 | -0.27 | 0.48 | 0.13
CG17118 | DRSC02579 | -0.29 | -0.2 | 0.43
Diap2 (Death-associated inhibitor of apoptosis 2) | DRSC07444 | 0.82 | 0.52 | -0.73
GC1 | DRSC15322 | -0.92 | 0.33 | -0.62
tctn + B9d2 | DRSC03160 | -0.34 | -0.02 | -0.45
CG33284 | DRSC22905 | 0.16 | 1.08 | -1.25
raptor | DRSC18359 | 3.61 | 2.9 | -2.04
Snoo (Sno oncogene) | DRSC01008 | 0.21 | -0.37 | 0.33
Snoo (Sno oncogene) | DRSC03004 | -1.12 | -1.61 | -0.33
Snoo (Sno oncogene) | DRSC03035 | -0.74 | 0.05 | 0.04
Ir21a + asRNA:CR43609 | DRSC00528 | -0.34 | -0.7 | 0.14
CG34288 | DRSC13564 | -2.4 | -0.76 | -0.26
CG4935 | DRSC01924 | 1.17 | 0.58 | 0.04
Fer1 (48 related 1) | DRSC12507 | -1.02 | 1.1 | 0.51
Fer1 (48 related 1) | DRSC12555 | -1.06 | -1.15 | -1.07
CG14605 | DRSC12549 | 0.89 | -0.46 | -0.09
IntS8 (Integrator 8) | DRSC07417 | -1.99 | -1.18 | -0.05
CG11168 | DRSC14292 | 0.13 | 0.8 | 0.05
comm2 | DRSC09881 | -2.17 | -0.77 | -1.47
comm2 | DRSC10877 | 0.46 | 0.44 | 0.2
CG43689 | DRSC18046 | -0.98 | -0.78 | -0.12
CG43689 | DRSC18383 | -2.87 | -3.36 | -1.14
CG43689 | DRSC22467 | -0.21 | 0.08 | -0.86
asRNA:Eig63F-2 + Eip63F-1 | DRSC21446 | -0.27 | -0.28 | -0.16
jet (jetlag) | DRSC03116 | 0.81 | -0.24 | -0.04
elg1 (enhanced level of genomic instability 1) | DRSC10229 | 0.25 | 0.13 | 0.28
CG33702 | DRSC08986 | 0.24 | -0.16 | -0.18
CG6225 | DRSC15996 | -0.27 | -0.33 | 0
CG13359 | DRSC18539 | 0.51 | -0.16 | -0.53
GAPsec (GTPase activating protein, SECIS-dependent read-through) | DRSC10564 | -0.12 | -0.78 | -0.15
Oat (Ornithine aminotransferase precursor) | DRSC11043 | -1.35 | -0.26 | 0.68
Spn28F (Serpin 28F) | DRSC03615 | 0.22 | -0.44 | 0.12
ATbp ((A+T)-stretch binding protein) | DRSC20906 | -0.92 | 0.41 | 0.4
Smox (Smad on X) | DRSC18716 | 2.28 | 1.78 | -0.36
Ino80 (INO80 complex subunit) | DRSC14760 | -0.15 | 0.26 | -1.27
Ino80 (INO80 complex subunit) | DRSC15333 | -0.29 | 0.07 | -0.79
Ino80 (INO80 complex subunit) | DRSC15501 | -0.29 | -0.44 | 0.83
Diap1 (Death-associated inhibitor of apoptosis 1) | DRSC11404 | -8.62 | -3.82 | 0.49
mfrn (mitoferrin) | DRSC15687 | -0.7 | -0.12 | -0.19
lectin-21Cb | DRSC00355 | 0.3 | -0.38 | 0.79
CG9692 | DRSC11091 | -0.69 | 1.33 | 0.85
Peritrophin-15a | DRSC02636 | 0 | 0.72 | 0.68
AIMP1 (aaRS-interacting multifunctional protein 1) | DRSC07118 | 0.76 | 0.48 | 0.52
Cyp308a1 (Cytochrome P450 308a1) | DRSC20238 | -0.42 | 0.13 | -0.25
AstA-R1 (Allatostatin A receptor 1) | DRSC17278 | 1.03 | 0.62 | -0.04
AstA-R1 (Allatostatin A receptor 1) | DRSC17727 | 0.37 | -0.21 | 0.54
CG9822 | DRSC04568 | -0.09 | 0.75 | 0.02
eIF5 (eukaryotic translation initiation factor 5) | DRSC20165 | -0.59 | 0.18 | -1.1
CG18368 | DRSC06731 | -0.11 | -0.87 | 1.17
CG31775 + CG42586 | DRSC22289 | 0.13 | 0.25 | 1.18
CG15012 | DRSC08465 | -0.86 | -0.81 | 0.34
CG11997 | DRSC14464 | -0.48 | -0.51 | -0.08
Dlic (Dynein light intermediate chain) | DRSC19824 | -0.35 | -0.65 | -0.73
cnn (centrosomin) | DRSC05422 | 0.1 | -0.22 | -0.68
cnn (centrosomin) | DRSC07596 | 0.82 | -0.06 | -0.02
Enoph (Enolase-phosphatase) | DRSC12201 | 1.58 | -0.24 | 0.38
CG10598 | DRSC19358 | -0.86 | -0.83 | 0.97
mEFG1 (mitochondrial translation elongation factor G 1) | DRSC02758 | -0.94 | -0.35 | -1.38
mats (mob as tumor suppressor) | DRSC13562 | 1.76 | -0.66 | 0.32
mats (mob as tumor suppressor) | DRSC14702 | 0.85 | 0.46 | -0.14
CG10651 | DRSC02086 | 0.31 | -0.66 | 0.5
Ir51b (Ionotropic receptor 51b) | DRSC05540 | 0.97 | 0.45 | 0.98
CG11504 | DRSC14318 | 1.16 | 1.16 | 0.12
CG31459 | DRSC13380 | 1.27 | 0.58 | -0.08

Just “replicate 2, z-score of dpERK with insulin” (11 entries from above):
AIMP1 (aaRS-interacting multifunctional protein 1) [DRSC07118] = 0.48
Cyp308a1 (Cytochrome P450 308a1) [DRSC20238] = 0.13
AstA-R1 (Allatostatin A receptor 1) [DRSC17278] = 0.62
AstA-R1 (Allatostatin A receptor 1) [DRSC17727] = -0.21
CG9822 [DRSC04568] = 0.75
eIF5 (eukaryotic translation initiation factor 5) [DRSC20165] = 0.18
CG18368 [DRSC06731] = -0.87
CG31775 + CG42586 [DRSC22289] = 0.25
CG15012 [DRSC08465] = -0.81
CG11997 [DRSC14464] = -0.51
Dlic (Dynein light intermediate chain) [DRSC19824] = -0.65
